In publication doi:10.1101/2023.08.10.552545:

Assays:
[1] = target: T1, IMC6^2-290-3xHA Q185 amber mutant (Azi at 185) (Toxoplasma gondii) (UniProt S8F8Q1); assay: cross-linking
T1 sequence (chain, p-azidophenylalanine (Azi) at 185 (amber stop codon in place of Q185)): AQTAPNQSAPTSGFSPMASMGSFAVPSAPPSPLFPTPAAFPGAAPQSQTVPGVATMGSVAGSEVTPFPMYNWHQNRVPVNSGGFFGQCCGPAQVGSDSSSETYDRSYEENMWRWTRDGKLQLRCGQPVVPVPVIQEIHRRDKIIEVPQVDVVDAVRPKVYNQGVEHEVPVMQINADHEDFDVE

[2] = target: T2, IMC6^2-290-3xHA F205 amber mutant (Azi at 205) (Toxoplasma gondii) (UniProt S8F8Q1); assay: cross-linking
T2 sequence (chain, p-azidophenylalanine (Azi) at 205 (amber stop codon in place of F205)): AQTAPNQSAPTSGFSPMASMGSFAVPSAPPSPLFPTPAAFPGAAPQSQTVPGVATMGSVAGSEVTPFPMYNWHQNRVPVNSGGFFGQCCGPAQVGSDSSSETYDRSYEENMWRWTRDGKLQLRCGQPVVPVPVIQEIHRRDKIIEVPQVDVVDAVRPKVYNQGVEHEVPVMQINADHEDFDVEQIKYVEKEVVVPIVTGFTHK

[3] = target: T3, IMC6^2-290-3xHA H203 amber mutant (Azi at 203) (Toxoplasma gondii) (UniProt S8F8Q1); assay: cross-linking
T3 sequence (chain, p-azidophenylalanine (Azi) at 203 (amber stop codon in place of H203)): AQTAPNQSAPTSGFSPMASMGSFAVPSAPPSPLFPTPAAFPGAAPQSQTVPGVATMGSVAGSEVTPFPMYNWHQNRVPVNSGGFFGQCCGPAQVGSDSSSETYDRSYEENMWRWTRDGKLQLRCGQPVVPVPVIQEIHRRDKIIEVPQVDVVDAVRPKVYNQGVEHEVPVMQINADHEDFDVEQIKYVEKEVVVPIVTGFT

[4] = target: T4, IMC6^2-290-3xHA E243 amber mutant (Azi at 243) (Toxoplasma gondii) (UniProt S8F8Q1); assay: cross-linking
T4 sequence (chain, p-azidophenylalanine (Azi) at 243 (amber stop codon in place of E243)): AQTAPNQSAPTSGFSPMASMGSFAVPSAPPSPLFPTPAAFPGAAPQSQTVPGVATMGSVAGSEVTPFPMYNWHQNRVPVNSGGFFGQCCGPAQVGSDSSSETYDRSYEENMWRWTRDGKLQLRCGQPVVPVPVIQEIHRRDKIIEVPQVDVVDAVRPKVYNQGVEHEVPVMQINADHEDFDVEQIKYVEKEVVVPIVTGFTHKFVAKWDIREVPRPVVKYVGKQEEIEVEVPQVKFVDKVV

[5] = target: T5, IMC6^2-290-3xHA Y221 amber mutant (Azi at 221) (Toxoplasma gondii) (UniProt S8F8Q1); assay: cross-linking
T5 sequence (chain, p-azidophenylalanine (Azi) at 221 (amber stop codon in place of Y221)): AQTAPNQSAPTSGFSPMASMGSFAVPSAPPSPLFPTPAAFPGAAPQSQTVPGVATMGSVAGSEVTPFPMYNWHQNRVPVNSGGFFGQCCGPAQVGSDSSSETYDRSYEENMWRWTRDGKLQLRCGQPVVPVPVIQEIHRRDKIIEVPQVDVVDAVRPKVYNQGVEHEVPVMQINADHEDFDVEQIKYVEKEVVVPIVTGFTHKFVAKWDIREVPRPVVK

[6] = target: T6, IMC6^2-290-3xHA K240 amber mutant (Azi at 240) (Toxoplasma gondii) (UniProt S8F8Q1); assay: cross-linking
T6 sequence (chain, p-azidophenylalanine (Azi) at 240 (amber stop codon in place of K240)): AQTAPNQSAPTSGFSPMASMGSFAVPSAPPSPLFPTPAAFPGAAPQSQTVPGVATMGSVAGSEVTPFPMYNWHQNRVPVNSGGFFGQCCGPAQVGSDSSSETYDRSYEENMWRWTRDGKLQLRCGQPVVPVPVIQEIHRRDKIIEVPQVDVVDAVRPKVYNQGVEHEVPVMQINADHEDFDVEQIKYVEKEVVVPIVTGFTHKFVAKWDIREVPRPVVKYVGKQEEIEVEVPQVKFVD

[7] = target: T7, IMC6^2-290-3xHA K277 amber mutant (Azi at 277) (Toxoplasma gondii) (UniProt S8F8Q1); assay: cross-linking
T7 sequence (chain, p-azidophenylalanine (Azi) at 277 (amber stop codon in place of K277)): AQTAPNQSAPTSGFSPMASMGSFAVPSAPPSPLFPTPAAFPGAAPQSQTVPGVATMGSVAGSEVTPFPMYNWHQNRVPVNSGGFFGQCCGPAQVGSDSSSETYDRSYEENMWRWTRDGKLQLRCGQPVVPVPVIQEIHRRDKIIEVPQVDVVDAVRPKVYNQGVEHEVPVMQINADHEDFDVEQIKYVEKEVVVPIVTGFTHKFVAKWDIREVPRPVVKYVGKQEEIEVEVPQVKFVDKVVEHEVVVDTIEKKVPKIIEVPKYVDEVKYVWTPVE

[8] = target: T8, IMC6^2-290-3xHA K224 amber mutant (Azi at 224) (Toxoplasma gondii) (UniProt S8F8Q1); assay: cross-linking
T8 sequence (chain, p-azidophenylalanine (Azi) at 224 (amber stop codon in place of K224)): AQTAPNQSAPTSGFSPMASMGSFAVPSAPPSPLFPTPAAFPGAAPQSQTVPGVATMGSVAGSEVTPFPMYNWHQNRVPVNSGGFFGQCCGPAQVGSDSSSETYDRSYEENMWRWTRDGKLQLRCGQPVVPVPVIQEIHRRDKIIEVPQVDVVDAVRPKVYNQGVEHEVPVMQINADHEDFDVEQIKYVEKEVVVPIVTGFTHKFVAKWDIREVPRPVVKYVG

[9] = target: T9, IMC6^2-290-3xHA Q234 amber mutant (Azi at 234) (Toxoplasma gondii) (UniProt S8F8Q1); assay: cross-linking
T9 sequence (chain, p-azidophenylalanine (Azi) at 234 (amber stop codon in place of Q234)): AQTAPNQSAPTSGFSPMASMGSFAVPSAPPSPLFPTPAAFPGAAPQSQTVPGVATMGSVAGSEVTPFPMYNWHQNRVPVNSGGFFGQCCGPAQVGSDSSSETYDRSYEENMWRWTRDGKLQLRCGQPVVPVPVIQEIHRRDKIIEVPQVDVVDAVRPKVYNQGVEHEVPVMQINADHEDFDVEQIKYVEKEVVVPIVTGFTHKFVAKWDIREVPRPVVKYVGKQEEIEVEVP

[10] = target: T10, IMC6^2-290-3xHA E229 amber mutant (Azi at 229) (Toxoplasma gondii) (UniProt S8F8Q1); assay: cross-linking
T10 sequence (chain, p-azidophenylalanine (Azi) at 229 (amber stop codon in place of E229)): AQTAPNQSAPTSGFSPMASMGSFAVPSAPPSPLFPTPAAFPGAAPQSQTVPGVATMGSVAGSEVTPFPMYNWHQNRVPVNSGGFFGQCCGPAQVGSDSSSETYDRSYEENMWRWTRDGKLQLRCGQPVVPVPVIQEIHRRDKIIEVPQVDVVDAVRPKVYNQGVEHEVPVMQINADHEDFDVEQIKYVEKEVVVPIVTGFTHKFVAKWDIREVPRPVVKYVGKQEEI

[11] = target: T11, IMC6^2-290-3xHA E245 amber mutant (Azi at 245) (Toxoplasma gondii) (UniProt S8F8Q1); assay: cross-linking
T11 sequence (chain, p-azidophenylalanine (Azi) at 245 (amber stop codon in place of E245)): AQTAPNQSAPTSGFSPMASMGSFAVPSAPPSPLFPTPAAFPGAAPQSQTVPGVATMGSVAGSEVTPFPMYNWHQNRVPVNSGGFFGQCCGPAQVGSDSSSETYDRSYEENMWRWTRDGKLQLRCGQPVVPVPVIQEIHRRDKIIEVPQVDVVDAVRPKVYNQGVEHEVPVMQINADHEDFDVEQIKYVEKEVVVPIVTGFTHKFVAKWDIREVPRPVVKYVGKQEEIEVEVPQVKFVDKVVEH

[12] = target: T12, IMC6^2-290-3xHA N162* (Azi at 162) (Toxoplasma gondii) (UniProt S8F8Q1); assay: cross-linking
T12 sequence (chain, p-azidophenylalanine (Azi) at 162 (amber stop codon in place of N162)): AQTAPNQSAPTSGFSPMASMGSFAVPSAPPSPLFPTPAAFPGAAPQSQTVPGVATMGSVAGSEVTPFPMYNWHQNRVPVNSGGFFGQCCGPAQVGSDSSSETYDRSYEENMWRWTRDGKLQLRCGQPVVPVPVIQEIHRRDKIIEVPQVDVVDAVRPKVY

[13] = target: T12, IMC6^2-290-3xHA N162* (Azi at 162) (Toxoplasma gondii); assay: cross-linking + co-IP

Measured: binding

ILP1-smMyc
binds: [1] | [2] | [3]

IMC3-smMyc (from UniProt S8FA55)
binds: [4] | [5] | [6] | [7] | [8] | [9] | [10] | [11] | [12]

IMC3 (from UniProt S8FA55)
binds: [13]

Results are given in words; binding and its absence hold for the method and conditions named. Binding seen in cells or lysates may run through a third protein. Binding can be weak; no strength is given.
